Tested on: mSWI/SNF complexes
Assay: mSWI/SNF complex purification with HA-tagged baits and mass spectrometry (peptide counts)
Parameters: species or system human
[1] = 293_HA-BRD7: HA-BRD7 bait purification, total peptide count per co-purified protein
[2] = 293_HA-BRD7: HA-BRD7 bait purification, unique peptide count per co-purified protein
[3] = total peptide count of the co-purified protein, 293_HA-BRD9 (HA-BRD9 bait, mass spectrometry), Table 3b
[4] = unique peptide count of the co-purified protein, 293_HA-BRD9 (HA-BRD9 bait, mass spectrometry), Table 3b

Molecule	Total [1]	Unique [2]	Total (293_HA-DPF2 purification, total peptides)	Unique (293_HA-DPF2 purification, unique peptides)	Total [3]	Unique [4]
Ighg1 (protein, UniProt P01868 1-324, looked up) Ig gamma-1 chain C region …: AKTTPPSVYPLAPGSAAQTNSMVTLGCLVKGYFPEPVTVTWNSGSLSSGVHTFPAVLQSDLYTLSSSVTVPSSPRPSETVTCNVAHPASSTKVDKKIVPRDCGCKPCICTVPEVSSVFIFPPKPKDVLTITLTPKVTCVVVDISKDDPEVQFSWFVDDVEVHTAQTQPREEQFNSTFRSVSELPIMHQDWLNGKEFKCRVNSAAFPAPIEKTISKTKGRPKAPQVYTIPPPKEQMAKDKVSLTCMITDFFPEDITVEWQWNGQPAENYKNTQPIMNTNGSYFVYSKLNVQKSNWEAGNTFTCSVLHEGLHNHHTEKSLSHSPGK	10	6	1	1	5	4
EEF1A1 (protein, UniProt P68104 2-462, looked up) Elongation factor 1-alpha 1: GKEKTHINIVVIGHVDSGKSTTTGHLIYKCGGIDKRTIEKFEKEAAEMGKGSFKYAWVLDKLKAERERGITIDISLWKFETSKYYVTIIDAPGHRDFIKNMITGTSQADCAVLIVAAGVGEFEAGISKNGQTREHALLAYTLGVKQLIVGVNKMDSTEPPYSQKRYEEIVKEVSTYIKKIGYNPDTVAFVPISGWNGDNMLEPSANMPWFKGWKVTRKDGNASGTTLLEALDCILPPTRPTDKPLRLPLQDVYKIGGIGTVPVGRVETGVLKPGMVVTFAPVNVTTEVKSVEMHHEALSEALPGDNVGFNVKNVSVKDVRRGNVAGDSKNDPPMEAAGFTAQVIILNHPGQISAGYAPVLDCHTAHIACKFAELKEKIDRRSGKKLEDGPKFLKSGDAAIVDMVPGKPMCVESFSDYPPLGRFAVRDMRQTVAVGVIKAVDKKAAGAGKVTKSAQKAQKAK	12	11	–	–	4	4
FIP1L1 (protein) MSAGEVERLVSELSGGTGGDEEEEWLYGGPWDVHVHSDLAKDLDENEVERPEEENASANPPSGIEDETAENGVPKPKVTETEDDSDSDSDDDEDDVHVTIGDIKTGAPQYGSYGTAPVNLNIKTGGRVYGTTGTKVKGVDLDAPGSINGVPLLEVDLDSFEDKPWRKPGADLSDYFNYGFNEDTWKAYCEKQKRIRMGLEVIPVTSTTNKITAEDCTMEVTPGAEIQDGRFNLFKVQQGRTGNSEKETALPSTKAEFTSPPSLFKTGLPPSRNSTSSQSQTSTASRKANSSVGKWQDRYGRAESPDLRRLPGAIDVIGQTITISRVEGRRRANENSNIQVLSERSATEVDNNFSKPPPFFPPGAPPTHLPPPPFLPPPPTVSTAPPLIPPPGFPPPPGAPPPSLIPTIESGHSSGYDSRSARAFPYGNVAFPHLPGSAPSWPSLVDTSKQWDYYARREKDRDRERDRDRERDRDRDRERERTRERERERDHSPTPSVFNSDEERYRYREYAERGYERHRASREKEERHRERRHREKEETRHKSSRSNSRRRHESEEGDSHRRHKHKKSKRSKEGKEAGSEPAPEQESTEATPAE	16	12	–	–	3	3
RPN1 (protein, UniProt P04843 24-607, looked up) Dolichyl-diphosphooligosacchar …: ASSEAPPLINEDVKRTVDLSSHLAKVTAEVVLAHLGGGSTSRATSFLLALEPELEARLAHLGVQVKGEDEEENNLEVRETKIKGKSGRFFTVKLPVALDPGAKISVIVETVYTHVLHPYPTQITQSEKQFVVFEGNHYFYSPYPTKTQTMRVKLASRNVESYTKLGNPTRSEDLLDYGPFRDVPAYSQDTFKVHYENNSPFLTITSMTRVIEVSHWGNIAVEENVDLKHTGAVLKGPFSRYDYQRQPDSGISSIRSFKTILPAAAQDVYYRDEIGNVSTSHLLILDDSVEMEIRPRFPLFGGWKTHYIVGYNLPSYEYLYNLGDQYALKMRFVDHVFDEQVIDSLTVKIILPEGAKNIEIDSPYEISRAPDELHYTYLDTFGRPVIVAYKKNLVEQHIQDIVVHYTFNKVLMLQEPLLVVAAFYILFFTVIIYVRLDFSITKDPAAEARMKVACITEQVLTLVNKRIGLYRHFDETVNRYKQSRDISTLNSGKKSLETEHKALTSEIALLQSRLKTEGSDLCDRVSEMQKLDAQVKELVLKSAVEAERLVAGKLKKDTYIENEKLISGKRQELVTKIDHILDAL	15	15	–	–	3	3
CPSF1 (protein, UniProt Q10570 1-1443, looked up) Cleavage and polyadenylation …: MYAVYKQAHPPTGLEFSMYCNFFNNSERNLVVAGTSQLYVYRLNRDAEALTKNDRSTEGKAHREKLELAASFSFFGNVMSMASVQLAGAKRDALLLSFKDAKLSVVEYDPGTHDLKTLSLHYFEEPELRDGFVQNVHTPRVRVDPDGRCAAMLVYGTRLVVLPFRRESLAEEHEGLVGEGQRSSFLPSYIIDVRALDEKLLNIIDLQFLHGYYEPTLLILFEPNQTWPGRVAVRQDTCSIVAISLNITQKVHPVIWSLTSLPFDCTQALAVPKPIGGVVVFAVNSLLYLNQSVPPYGVALNSLTTGTTAFPLRTQEGVRITLDCAQATFISYDKMVISLKGGEIYVLTLITDGMRSVRAFHFDKAAASVLTTSMVTMEPGYLFLGSRLGNSLLLKYTEKLQEPPASAVREAADKEEPPSKKKRVDATAGWSAAGKSVPQDEVDEIEVYGSEAQSGTQLATYSFEVCDSILNIGPCANAAVGEPAFLSEEFQNSPEPDLEIVVCSGHGKNGALSVLQKSIRPQVVTTFELPGCYDMWTVIAPVRKEEEDNPKGEGTEQEPSTTPEADDDGRRHGFLILSREDSTMILQTGQEIMELDTSGFATQGPTVFAGNIGDNRYIVQVSPLGIRLLEGVNQLHFIPVDLGAPIVQCAVADPYVVIMSAEGHVTMFLLKSDSYGGRHHRLALHKPPLHHQSKVITLCLYRDLSGMFTTESRLGGARDELGGRSGPEAEGLGSETSPTVDDEEEMLYGDSGSLFSPSKEEARRSSQPPADRDPAPFRAEPTHWCLLVRENGTMEIYQLPDWRLVFLVKNFPVGQRVLVDSSFGQPTTQGEARREEATRQGELPLVKEVLLVALGSRQSRPYLLVHVDQELLIYEAFPHDSQLGQGNLKVRFKKVPHNINFREKKPKPSKKKAEGGGAEEGAGARGRVARFRYFEDIYGYSGVFICGPSPHWLLVTGRGALRLHPMAIDGPVDSFAPFHNVNCPRGFLYFNRQGELRISVLPAYLSYDAPWPVRKIPLRCTAHYVAYHVESKVYAVATSTNTPCARIPRMTGEEKEFETIERDERYIHPQQEAFSIQLISPVSWEAIPNARIELQEWEHVTCMKTVSLRSEETVSGLKGYVAAGTCLMQGEEVTCRGRILIMDVIEVVPEPGQPLTKNKFKVLYEKEQKGPVTALCHCNGHLVSAIGQKIFLWSLRASELTGMAFIDTQLYIHQMISVKNFILAADVMKSISLLRYQEESKTLSLVSRDAKPLEVYSVDFMVDNAQLGFLVSDRDRNLMVYMYLPEAKESFGGMRLLRRADFHVGAHVNTFWRTPCRGATEGLSKKSVVWENKHITWFATLDGGIGLLLPMQEKTYRRLLMLQNALTTMLPHHAGLNPRAFRMLHVDRRTLQNAVRNVLDGELLNRYLYLSTMERSELAKKIGTTPDIILDDLLETDRVTAHF	29	26	–	–	3	3
SLC25A12 (protein, UniProt O75746 2-678, looked up) Electrogenic …: AVKVQTTKRGDPHELRNIFLQYASTEVDGERYMTPEDFVQRYLGLYNDPNSNPKIVQLLAGVADQTKDGLISYQEFLAFESVLCAPDSMFIVAFQLFDKSGNGEVTFENVKEIFGQTIIHHHIPFNWDCEFIRLHFGHNRKKHLNYTEFTQFLQELQLEHARQAFALKDKSKSGMISGLDFSDIMVTIRSHMLTPFVEENLVSAAGGSISHQVSFSYFNAFNSLLNNMELVRKIYSTLAGTRKDVEVTKEEFAQSAIRYGQVTPLEIDILYQLADLYNASGRLTLADIERIAPLAEGALPYNLAELQRQQSPGLGRPIWLQIAESAYRFTLGSVAGAVGATAVYPIDLVKTRMQNQRGSGSVVGELMYKNSFDCFKKVLRYEGFFGLYRGLIPQLIGVAPEKAIKLTVNDFVRDKFTRRDGSVPLPAEVLAGGCAGGSQVIFTNPLEIVKIRLQVAGEITTGPRVSALNVLRDLGIFGLYKGAKACFLRDIPFSAIYFPVYAHCKLLLADENGHVGGLNLLAAGAMAGVPAASLVTPADVIKTRLQVAARAGQTTYSGVIDCFRKILREEGPSAFWKGTAARVFRSSPQFGVTLVTYELLQRWFYIDFGGLKPAGSEPTPKSRIADLPPANPDHIGGYRLATATFAGIENKFGLYLPKFKSPSVAVVQPKAAVAATQ	9	9	–	–	3	3
IMMT (protein, UniProt Q16891 34-758, looked up) MICOS complex subunit MIC60: STSGSSGLTTGKIAGAGLLFVGGGIGGTILYAKWDSHFRESVEKTIPYSDKLFEMVLGPAAYNVPLPKKSIQSGPLKISSVSEVMKESKQPASQLQKQKGDTPASATAPTEAAQIISAAGDTLSVPAPAVQPEESLKTDHPEIGEGKPTPALSEEASSSSIRERPPEEVAARLAQQEKQEQVKIESLAKSLEDALRQTASVTLQAIAAQNAAVQAVNAHSNILKAAMDNSEIAGEKKSAQWRTVEGALKERRKAVDEAADALLKAKEELEKMKSVIENAKKKEVAGAKPHITAAEGKLHNMIVDLDNVVKKVQAAQSEAKVVSQYHELVVQARDDFKRELDSITPEVLPGWKGMSVSDLADKLSTDDLNSLIAHAHRRIDQLNRELAEQKATEKQHITLALEKQKLEEKRAFDSAVAKALEHHRSEIQAEQDRKIEEVRDAMENEMRTQLRRQAAAHTDHLRDVLRVQEQELKSEFEQNLSEKLSEQELQFRRLSQEQVDNFTLDINTAYARLRGIEQAVQSHAVAEEEARKAHQLWLSVEALKYSMKTSSAETPTIPLGSAVEAIKANCSDNEFTQALTAAIPPESLTRGVYSEETLRARFYAVQKLARRVAMIDETRNSLYQYFLSYLQSLLLFPPQQLKPPPELCPEDINTFKLLSYASYCIEHGDLELAAKFVNQLKGESRRVAQDWLKEARMTLETKQIVEILTAYASAVGIGTTQVQPE	8	7	–	–	3	3
